From PubChem BioAssay AID2685 (National Center for Advancing Translational Sciences (NCATS), 2010)
Some of the results follow. Shown are side measurements of this screen, not its main read-out; they come without a call. Most of these compounds were active or inconclusive in the main read-out, so they are no random draw. Potencies come from curve fits of mixed quality, noted in brackets.

Assay: qHTS Assay for Lipid Storage Modulators in Drosophila S3 Cells;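 for cell number change: cells counted by Cell Tracker Red CMTPX staining in the red channel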
Details: BODIPY lipid droplet fluorescence, 18-24 h; for cell number change: measured here: cell count max response, cells fed with added oleic acid
Procedure, shortened: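 Drosophila S3 cells loaded with oleic acid (400 uM, as added) and compounds at several concentrations; lipid droplets imaged by 488-nm laser-scanning cytometry, 500–530 nm intensity and object ratio to cell channel. Percent activity normalized to 20 uM Triacsin C.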

[1] = measured here: cell number channel AC50, cells fed with added oleic acid
[2] = measured here: lipid fluorescence (Fed channel) AC50, cells fed with added oleic acid

Compound	cell number change [%]	AC50 [1]	AC50 [2]
CN1CCNC(=O)C1CC(=O)O (stereo unspecified)	34.2	0.206 µM [rising, full curve, poor fit]	25.9 µM [rising, partial curve, poor fit]
CCc1nnc(NS(=O)(=O)c2ccccc2)s1	-15	–	–
Cc1ccc(S(=O)(=O)N(CC(=O)N(C)C)c2cccc([N+](=O)[O-])c2)cc1	43.7	14.6 µM [rising, partial curve]	18.4 µM [rising, single point]
C=CCn1c(=NC(=O)c2sc3ccccc3c2Cl)sc2cc(S(N)(=O)=O)ccc21	-47.5	29.1 µM [falling, single point]	2.59 µM [rising, partial curve, poor fit]
CC(C)n1c(-c2ccccc2F)n[nH]c1=S	16.4	–	29.1 µM [rising, single point]
Cc1cc(C)nc(NC(=O)Nc2ccc(F)cc2F)n1	12.7	1.64 µM [rising, partial curve, poor fit]	0.00461 µM [rising, full curve, poor fit]
COc1ccc(/C=C(/C(=O)c2ccc(Cl)cc2Cl)n2cncn2)cc1	-13.2	–	0.326 µM [falling, partial curve, poor fit]
CCCCOc1ccccc1C1C(C(=O)OC)=CN(CC)C=C1C(=O)OC	-27.2	0.13 µM [falling, full curve, poor fit]	–
CN1C(=O)C(=O)N(CC(=O)N2CCc3ccccc32)C1=O	8.32	–	29.1 µM [rising, single point]
Cc1ccc(S(=O)(=O)CCC(=O)N2CCN(c3ccccc3F)CC2)cc1	20.2	0.00461 µM [rising, full curve, poor fit]	–
CCCCNC(=O)c1onc(CSc2ccc(F)c(F)c2)c1C(=O)O	-2.45	–	–
Cc1c(OC(C)C(=O)NCCCN2CCOCC2)ccc2c1oc(=O)c1ccccc12 (stereo unspecified)	14.1	–	29.1 µM [rising, partial curve, poor fit]
CC1CCc2nc(NC(=O)CN3CCOCC3)sc2C1 (stereo unspecified)	47.3	16.4 µM [rising, single point]	20.6 µM [rising, single point]
COC(=O)c1cc2c(C)c(C)c3ccccn3c-2c1C(=O)OC	-35.1	1.16 µM [rising, partial curve]	2.06 µM [rising, partial curve]
Cc1ccc(-c2nc(CS(=O)CC(=O)NCCN3CCOCC3)c(C)o2)cc1 (stereo unspecified)	27.7	–	14.6 µM [rising, partial curve, poor fit]
CCOC(=O)N1CCC(N2Cc3cccc(C(=O)NCc4ccccn4)c3C2=O)CC1	19.6	–	3.66 µM [rising, single point]
CCN(CC(=O)Nc1c(F)cccc1F)C(=O)CC1CCCCC1	-14.5	–	–
Cn1c(=O)c2c(nc(N3CCCCCC3)n2CC(O)COc2ccccc2)n(C)c1=O (stereo unspecified)	3.45	–	–

Record cards, as listed above.
`Cc1ccc(S(=O)(=O)N(CC(=O)N(C)C)c2cccc([N+](=O)[O-])c2)cc1` is listed as cell number change [%]: 43.7; AC50 [1]: 14.6 µM [rising, partial curve]; AC50 [2]: 18.4 µM [rising, single point]
`COc1ccc(/C=C(/C(=O)c2ccc(Cl)cc2Cl)n2cncn2)cc1` is listed as cell number change [%]: -13.2; AC50 [2]: 0.326 µM [falling, partial curve, poor fit]

(more compounds)

Compound	cell number change [%]	AC50 [1]	AC50 [2]
COC(=O)c1nnn(CC(=O)NC(=O)Nc2cccc(C)c2C)c1C(=O)OC	39.9	8.2 µM [rising, partial curve]	8.2 µM [rising, partial curve]
O=Cc1ccccc1-c1cn(CCCOCc2ccccc2)nn1	14.6	–	29.1 µM [falling, single point]
Cc1cc(C)c(NC(=O)CSc2nnc(CNC(=O)c3c(F)cccc3Cl)o2)c(C)c1	-14.4	0.92 µM [falling, full curve, poor fit]	0.146 µM [falling, full curve, poor fit]
COc1ccc(NC(=O)CSc2nc3ccccc3c(=O)n2CCNC(C)=O)c(OC)c1	-17.7	–	0.103 µM [falling, full curve, poor fit]
CN(C)S(=O)(=O)c1ccc(NC(=O)COC(=O)Cn2[nH]c(=O)c3ccccc3c2=O)cc1	18.9	0.146 µM [falling, full curve, poor fit]	0.146 µM [falling, full curve, poor fit]
Cc1ccccc1CNC(=O)C(=O)Nc1nccs1	0.135	7.31 µM [rising, single point]	5.8 µM [rising, single point]
CCCN(CCC)CCN1C(=O)C2C(C(=O)Nc3ccc(C)cc3)C3C=CC2(O3)C1C(=O)NC1CCCCC1 (stereo unspecified)	14.4	–	6.51 µM [rising, single point]
CCN(CCN1CCCC1)C(=O)c1cc(COc2ccccc2SC)on1	3.97	–	0.13 µM [rising, full curve, poor fit]
CCOC(=O)C(CC)(CCC(=O)O)c1csc(N)n1 (stereo unspecified)	-40.6	3.26 µM [falling, full curve]	3.66 µM [falling, full curve]
CCc1nc2ccc(C(=O)N3CCN(c4ccccc4)CC3)cc2nc1CC	8.25	–	–
Cc1noc(NS(=O)(=O)c2ccc(NC(=O)CSc3n[nH]c(-c4ccccc4)n3)cc2)c1C	2.16	–	16.4 µM [rising, single point]
O=C(CN1c2ccccc2Sc2ccccc21)NNC(=O)Nc1ccc(Cl)cc1	-4.51	–	2.91 µM [rising, partial curve]
CCOC(=O)N1CCC(n2c(SCC(=O)N3CCC(C)CC3)nc3ccccc3c2=O)CC1	-27.5	–	–
CCN(CC(=O)Nc1c(F)cccc1F)C(=O)C1=COCCO1	-11.7	–	25.9 µM [falling, partial curve]
Cn1c(/N=C/c2ccc3c(c2)OCO3)nc2ccccc21	-0.0225	–	5.8 µM [falling, single point]
CC1CCCC(NC(=O)COC(=O)Cc2ccc(Br)cc2)C1C (stereo unspecified)	2.88	–	–
Cc1c(Cl)cccc1NC(=O)COC(=O)Cc1ccsc1	-10	–	13 µM [falling, partial curve]
Cc1cc(C)c(C#N)c(N2CCN(Cc3ccccc3)CC2)n1	-2.51	–	0.731 µM [rising, single point]
